This passage reports binding results from patent publication US20200385438A1 (Stanford University, published 2020).

The chains behind the UniProt entries cited, without tags or fusion partners. Where a name states a change or a piece, a line headed by the entry shows the natural chain unless it says otherwise.
UniProt P60568: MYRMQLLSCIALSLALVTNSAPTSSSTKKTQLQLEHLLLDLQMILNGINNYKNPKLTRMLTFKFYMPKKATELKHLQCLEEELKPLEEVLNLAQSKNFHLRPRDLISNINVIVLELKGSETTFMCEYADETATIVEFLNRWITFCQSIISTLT

This assay addresses biotinylated recombinant BH3-tagged hIL-2 (human) (UniProt P60568). The experiment in a line: yeast display of hCD25 variants, clone screen with biotinylated hIL-2 monomer read by flow cytometry.

Results are given in words; binding and its absence hold for the method and conditions named. Some entries that bind do so weakly or less than the wild type.

B1: B5 (receptor)
CD25 (IL-2Rα) chain: ELCDDDPPEIPHATFKAMAYKEGTILVCDCKRGFRRIKSGSAYMLCTGNSSHSSWDNQCQCTSSATRNTTKQVTPQPEEQKERKTTEMQSPMQPVDQASLPGHCREPPPWENEATERRYWFVVGQMVYYQCVQGYRALHRGPAESVCKMTHGQTRWTQPQLICTGEMETSQFPGEEKPQASPEGRPESETSCLVTTTDFQIQTEMAATMETSIFTTE
notes: also called B5 hCD25
For B1, the binding entry is listed as “binds”.

B2: E8 (receptor)
CD25 (IL-2Rα) chain: EQCDDDPPEIPHATFKAMAYKEGTVLYCECKRGFRRIKSGSAYMLCTGNSSHSSWDNQCQCTSSATRNTTKQVTPQPEEQKERKTTEMQSPMQPVDQASLPGHCREPPPWENEATERRYWFVVGQMVYYQCVQGYRALHRGPAESVCKMTHGKTRWTQPQLICTGEMETSQFPGEEKPQASPEGRPESETSCLVTTTDFQIQTEMAATMETSIFTTE
notes: also called E8 hCD25
For the molecule B2, the binding result is “binds”.

B3: F5 (receptor)
CD25 (IL-2Rα) chain: ELCDDDPPEIPHATFKAMAYKEGTLLVCECKRGFRRIKSGSAYMLCTGNSSHSSWDNQCQCTSSATRNTTKQVTPQPEEQKERKTTEMQSPMQPVDQASLPGHCREPPPWENEATERNYMFVVGQMVYYQCVQGYRALHRGPAESVCKMTHGGTRWTQPQLICTGEMETSQFPGEEKPQASPEGRPESETSCLVTTTDFQIQTEMAATMETSIFTTE
notes: also called F5 hCD25
As to B3, the binding entry is on record as “binds”.
